From publication PMC12124425 come the findings set out here.

The chains behind the UniProt entries cited, without tags or fusion partners. Residues count along the entry.
UniProt Q9NY72, residues 23-215: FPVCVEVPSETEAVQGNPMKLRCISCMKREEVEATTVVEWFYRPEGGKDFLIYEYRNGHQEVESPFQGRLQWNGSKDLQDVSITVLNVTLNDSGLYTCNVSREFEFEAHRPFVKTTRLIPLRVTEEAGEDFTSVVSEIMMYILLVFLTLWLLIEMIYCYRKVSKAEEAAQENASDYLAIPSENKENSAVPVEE

These are yes or no findings as the source states them, for the method shown. Binding seen in cells or lysates may run through a third protein. Here binding means that the protein was enriched with, or labelled near, the bait; the list need not be complete.

For experiment [1], the target named is Myc tag-NaVβ3 (voltage-gated Na+ channel β3 subunit, encoded by SCN3B), expressed in COS-7 (human) (UniProt Q9NY72). Nature of the experiment: affinity purification with mass spectrometry; Myc-NaVβ3 from transfected COS-7 immunocaptured on Myc-Trap magnetic beads and washed, then incubated with 1 mg HUVEC whole protein lysate for 1 h at 4°C; eluate analysed by LC-MS/MS (DDA); pCTL vector as negative control; only the target purified.

Experiment [2] deals with Myc tag-NaVβ3 (voltage-gated Na+ channel β3 subunit, encoded by SCN3B), expressed in TeloHAEC (human) (UniProt Q9NY72). Kind of experiment: affinity purification with mass spectrometry; Myc-NaVβ3 captured from lysate of transfected TeloHAEC (20 mM Tris pH 7.4, 150 mM NaCl, 1% Triton) on Myc-Trap magnetic agarose beads overnight at 4°C after pre-clearing on control beads; eluate analysed by LC-MS/MS (DDA); pCTL vector as negative ….

B1: TMED9 (protein, UniProt Q9BVK6 38-235)
chain: LYFHIGETEKKCFIEEIPDETMVIGNYRTQLYDKQREEYQPATPGLGMFVEVKDPEDKVILARQYGSEGRFTFTSHTPGEHQICLHSNSTKFSLFAGGMLRVHLDIQVGEHANDYAEIAAKDKLSELQLRVRQLVEQVEQIQKEQNYQRWREERFRQTSESTNQRVLWWSILQTLILVAIGVWQMRHLKSFFEAKKLV
Take B1: the binding entry in experiment [1] and in experiment [2] was “binds” each time.
